Hit rate of the full screen: of about 330,000 compounds, about 7,700 (2.3%) were called active. The shares of active, inactive and inconclusive entries below differ from those in the screen. The call rests on the fitted dose curve; in most records, active means well fitted inhibition curve with a large enough effect; inconclusive means small, poorly fitted or top-dose-only effect, or effect the other way; inactive means flat fitted curve, though single readings scatter. Potencies of inconclusive entries are doubtful fits and often do not repeat.
assay: qHTS screen for small molecules that inhibit ELG1-dependent DNA repair in human embryonic kidney (HEK293T) cells expressing luciferase-tagged ELG1; conditions: HEK293T ELG1-luciferase reporter, luminescence, 16 h, DNA damage induced by 5-fluorouridine; activity change, negative = inhibition: at 46.1 µM (top of the series); further: nearly all actives have a fitted effect of over 55% in size
Outline: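 Cells (2,000 per well) received 5-fluorouridine plus test compound or DMSO and were incubated 16 hr at 37 °C, 5% CO2. Luciferase activity was read by luminescence 30 min after ONE-Glo addition; signal suppression marked inhibition of damage-induced ELG1 function.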
On the % scale 0 is the no-effect control and ±100 the full control effect; potency means the concentration at half of the fitted maximal effect.

Question: For `Cc1ccc(-c2nc3ccccc3[nH]2)cc1NC(=O)c1ccc2c(c1)OCO2`, which Potency is on record?
Answer: inconclusive: 3.66 µM [inhibitor, single point]

Question: Which Potency does the source give for `O=[N+]([O-])c1cccc(/C=N/Nc2ccccn2)c1` here?
Answer: inconclusive: 23.1 µM [activator, partial curve]

Question: Which Potency does the source give for `O=S(=O)(/C=C/c1ccccc1)NCc1ccccc1Cl` here?
Answer: inconclusive: 20.6 µM [activator, partial curve, poor fit]

Question: Which Potency does the source give for `C(#CC1CCCCC1)c1ccc2c(c1)COc1c3ccccc3nn1-2` here?
Answer: inconclusive: 8.2 µM [activator, partial curve]

Question: For `c1ccc(N2CCN(c3nc4cc5c(cc4s3)OCO5)CC2)cc1`, which Potency is on record?
Answer: inconclusive: 0.651 µM [activator, full curve]

Question: For `Cc1oncc1C(=O)Nc1ccc(C(F)(F)F)cc1`, which Potency is on record?
Answer: inconclusive: 14.6 µM [activator, partial curve]

Question: With `CCCOC(=O)c1cccc(NC(=O)c2cccnc2)c1` as the compound, how does the Potency read?
Answer: inactive

Question: With `CC1Cc2ccccc2N1CC(=O)NCc1ccc2c(c1)OCO2` (stereo unspecified) as the compound, how does the Potency read?
Answer: inactive

Question: For `COc1ccc(NC(=O)c2ccc(NC(=O)c3cccs3)cc2)cc1`, which Potency is on record?
Answer: inconclusive: 13 µM [activator, partial curve]

Question: Which Potency does the source give for `C/C=C\C=C/C(=O)Nc1cccc(C2=NOC3(C2)C[C@@H](C(N)=O)N(C(=O)c2ccccc2)C3)c1` (stereo partly specified) here?
Answer: inactive

Question: Which Potency does the source give for `Cc1cc(NC(=O)c2ccc(F)cc2)ccc1NC(=O)c1ccco1` here?
Answer: inconclusive: 5.8 µM [activator, partial curve, poor fit]

Question: Which Potency does the source give for `COc1ccccc1NC(=S)NNC(=O)c1nn(C)c(C)c1Cl` here?
Answer: inactive

Question: Which Potency does the source give for `CC1CCc2cc(F)ccc2N1C(=O)CSc1nnc2c(n1)[nH]c1ccc(F)cc12` (stereo unspecified) here?
Answer: inactive

Question: Which Potency does the source give for `Cc1ccc(-c2n[nH]c(=S)n2/N=C/c2c(C)nn(-c3ccccc3)c2C)cc1` here?
Answer: inactive

Question: Which Potency does the source give for `N#Cc1nc(Cc2ccccc2)oc1NCCc1ccccc1` here?
Answer: inconclusive: 3.66 µM [activator, partial curve]

Question: With `CCC(CO)Oc1cc(NCc2cccc(C(F)(F)F)c2)c2ncn(C(C)C)c2c1` (stereo unspecified) as the compound, how does the Potency read?
Answer: inactive

Question: For `O=C(NCc1cc(F)ccc1F)C1CCC(=O)N(C2CCCCCC2)C1` (stereo unspecified), which Potency is on record?
Answer: inconclusive: 20.6 µM [activator, single point]

Question: For `C#CCOc1ccc(/C=C2/C(=O)NN(c3ccc(F)cc3)C2=O)cc1OC`, which Potency is on record?
Answer: inactive

Question: With `Cc1ccc(-c2nn(-c3ccccc3)cc2/C=N/n2c(-c3cccs3)n[nH]c2=S)cc1` as the compound, how does the Potency read?
Answer: inactive

Question: Which Potency does the source give for `Cc1ccc(S(=O)(=O)N2CCN(C(=O)CC(C)C)CC2)cc1` here?
Answer: inconclusive: 8.2 µM [activator, partial curve]

Question: For `CCN(C(=O)/C=C/c1ccc(OC)cc1)C1CCCCC1`, which Potency is on record?
Answer: inconclusive: 29.1 µM [activator, single point]

Question: For `COc1ccc2c(-c3ccccc3)cc(SCC(=O)N(C)C3CCS(=O)(=O)C3)nc2c1` (stereo unspecified), which Potency is on record?
Answer: inconclusive: 18.4 µM [inhibitor, single point]

Question: For `COc1ccc(C(=O)CCN2CCC(C)CC2)cc1`, which Potency is on record?
Answer: inactive

Question: For `CC(=O)n1cc([C@H]2C=C(C(=O)Nc3ccccc3)O[C@@H](OCCCCO)C2)c2ccccc21`, which Potency is on record?
Answer: inconclusive: 29.1 µM [inhibitor, single point]

Question: With `Fc1cccc2sc(Nc3nc4ccccc4s3)nc12` as the compound, how does the Potency read?
Answer: inconclusive: 2.59 µM [activator, full curve]

Question: Which Potency does the source give for `CCOC(=O)c1cccc(NC(=O)CCc2nc(-c3ccc(C)cc3)no2)c1` here?
Answer: inconclusive: 29.1 µM [inhibitor, single point]

Question: For `O=C(NCc1cccnc1)C1CC(c2ccc(Cl)c(Cl)c2)=NO1` (stereo unspecified), which Potency is on record?
Answer: inactive

Question: For `C/C=C(/C)C(=O)Nc1cccc(C2=NOC3(C2)C[C@H](C(N)=O)N(C(=O)Cc2ccc([N+](=O)[O-])cc2)C3)c1` (stereo partly specified), which Potency is on record?
Answer: inactive

Question: For `Cc1ccnc(NC(=O)c2cccc(S(=O)(=O)N3CCOCC3)c2)c1`, which Potency is on record?
Answer: inconclusive: 10.3 µM [activator, partial curve]

Question: For `COc1ccc(NC(=O)C(=S)NC2CCCCC2)cc1`, which Potency is on record?
Answer: inconclusive: 9.2 µM [activator, partial curve]

Question: With `COc1ccc(C(=O)Nc2ccnn2C2CCN(Cc3cnn(C)c3)CC2)cc1` as the compound, how does the Potency read?
Answer: inconclusive: 23.1 µM [activator, partial curve, poor fit]

Question: With `CC(Sc1nncs1)C(=O)Nc1ccc2c(c1)OCCO2` (stereo unspecified) as the compound, how does the Potency read?
Answer: inconclusive: 29.1 µM [activator, single point]

Question: Which Potency does the source give for `N#C/C(=C\c1cccnc1)C(=O)Nc1ccc(SC(F)F)cc1` here?
Answer: inactive

Question: Which Potency does the source give for `COC(=O)c1ccc(COc2ccccc2/C=N/NC(=O)c2cccnc2)cc1` here?
Answer: inconclusive: 25.9 µM [activator, single point]

Question: For `Cc1ccc2cc(CN(Cc3cccs3)Cc3nnnn3CC3CCCO3)c(=O)[nH]c2c1` (stereo unspecified), which Potency is on record?
Answer: inconclusive: 29.1 µM [inhibitor, single point]

Question: With `Cc1oc(-c2cccc(Cl)c2)nc1CSCC(=O)O` as the compound, how does the Potency read?
Answer: inactive

Question: For `O=C1CCC(=O)N1c1ccc(NCCc2ccccc2F)c([N+](=O)[O-])c1`, which Potency is on record?
Answer: inconclusive: 16.4 µM [activator, single point]

Question: Which Potency does the source give for `COCCOC(=O)c1[nH]c2c(c1C)C(=O)CC(c1cc(OC)c(OC)c(OC)c1)C2` (stereo unspecified) here?
Answer: active: 8.2 µM

Question: Which Potency does the source give for `Cn1c(-c2ccccc2)cnc1SCC(=O)N1CCCCC1` here?
Answer: inconclusive: 0.82 µM [activator, partial curve]

Question: For `Cc1cccc(Cn2c(NCC(C)O)nc3c2c(=O)n(C)c(=O)n3C)c1` (stereo unspecified), which Potency is on record?
Answer: active: 14.6 µM

Question: For `O=C(Nc1nc(-c2ccc(Cl)s2)cs1)c1ccco1`, which Potency is on record?
Answer: inconclusive: 16.4 µM [activator, partial curve]

Question: For `c1ccc(C2CC(c3ccccc3)n3ncnc3N2)cc1` (stereo unspecified), which Potency is on record?
Answer: inactive

Question: Which Potency does the source give for `CC(C)(C)C(=O)OCCNc1nc(-c2ccccc2)nc2ccccc12` here?
Answer: inconclusive: 16.4 µM [inhibitor, partial curve]

Question: For `CC(=O)NC1C(OCc2ccccc2)OC2COC(c3ccccc3)OC2C1OCC(=O)O` (stereo unspecified), which activity change, negative = inhibition is on record?
Answer: inconclusive: 287% [activator]

Question: For `OCCC1CN(Cc2ccccc2O)CCN1CCCc1ccccc1` (stereo unspecified), which Potency is on record?
Answer: inactive

Question: Which Potency does the source give for `Cn1cccc1C(=O)NNC(=O)COc1ccccc1Cl` here?
Answer: inconclusive: 11.6 µM [activator, partial curve]

Question: For `Cn1c(SCc2cccc(F)c2)nnc1-c1cnccn1`, which Potency is on record?
Answer: inconclusive: 20.6 µM [activator, partial curve]

Question: Which Potency does the source give for `CN(CCCC1CCCC1)C(=O)CC1C(=O)NCCN1Cc1cccc(F)c1F` (stereo unspecified) here?
Answer: inactive

Question: For `CSc1ccccc1NC(=O)C1CCN(S(C)(=O)=O)CC1`, which Potency is on record?
Answer: inactive

Question: For `Cc1onc(COc2ccccc2O)c1Br`, which Potency is on record?
Answer: inconclusive: 32.6 µM [activator, partial curve, poor fit]

Question: With `CC1(OC(=O)CCc2ccccc2)C(=O)C=C2C=C(c3ccc(C#N)cc3)N(C3CCCC3)C=C2C1=O` (stereo unspecified) as the compound, how does the Potency read?
Answer: inactive

Question: With `COc1ccc(CN/C(C)=C(/C#N)C(N)=O)cc1OC` as the compound, how does the Potency read?
Answer: inconclusive: 12.6 µM [activator, single point]

Question: For `COc1ccc(NC(=O)Nc2ncccc2C)cc1`, which Potency is on record?
Answer: inconclusive: 18.4 µM [activator, partial curve]

Question: With `O=C(Nc1cccc(Cl)c1)Nc1ccc2c(c1)OCO2` as the compound, how does the Potency read?
Answer: inconclusive: 20.6 µM [activator, partial curve]

Question: For `C(=N\Nc1ccccc1)/c1ccc(N2CCOCC2)cc1`, which Potency is on record?
Answer: inconclusive: 14.6 µM [activator, partial curve]

Question: Which Potency does the source give for `CCc1cc2c(COC(=O)CCNS(=O)(=O)c3cccc(C(F)(F)F)c3)cc(=O)oc2cc1O` here?
Answer: inconclusive: 16.4 µM [inhibitor, single point]

Question: With `CCOc1ccc(Br)cc1S(=O)(=O)Nc1ccc(S(=O)(=O)Nc2cc(C)on2)cc1` as the compound, how does the Potency read?
Answer: inconclusive: 18.3 µM [activator, partial curve, poor fit]

Question: With `Cc1ccsc1/C=N/N=C/c1sccc1C` as the compound, how does the Potency read?
Answer: inconclusive: 10 µM [activator, partial curve]

Question: Which Potency does the source give for `O=C(Nc1ccccn1)c1ccc2ccccc2c1O` here?
Answer: inconclusive: 18.3 µM [activator, partial curve]

Question: For `CCCCCc1ccc(-c2cn(CC3CCCCC3)nn2)cc1`, which Potency is on record?
Answer: inactive

Question: Which Potency does the source give for `O=C(OCC(=O)N1CCN(C(=O)c2ccco2)CC1)c1ccccc1NCCO` here?
Answer: inconclusive: 32.6 µM [activator, partial curve, poor fit]

Question: With `O=C(Nc1cccc2ccccc12)/C(Cl)=C/c1ccccc1` as the compound, how does the Potency read?
Answer: inconclusive: 14.6 µM [activator, partial curve]

Question: With `COc1ccccc1NC(=O)/C(=C/c1cccc([N+](=O)[O-])c1)c1ccccc1` as the compound, how does the Potency read?
Answer: inconclusive: 25.9 µM [inhibitor, single point]

Question: Which Potency does the source give for `COc1cc(S(=O)(=O)N2CCN(C(=O)c3ccco3)CC2)ccc1Cl` here?
Answer: inconclusive: 23.1 µM [inhibitor, partial curve, poor fit]

Question: For `O=C(C1COc2ccccc2O1)N1CCCC1` (stereo unspecified), which Potency is on record?
Answer: inactive

Question: Which Potency does the source give for `O=C(Nc1nnc(SCC(=O)N2CCCc3ccccc32)s1)c1ccccc1` here?
Answer: inconclusive: 8.2 µM [activator, partial curve]

Question: With `Cc1nsc(Nc2ccccc2)c1C#N` as the compound, how does the Potency read?
Answer: inconclusive: 18.3 µM [inhibitor, partial curve]

Question: For `Cc1cc(=O)[nH]c(N/N=C/C=C/c2ccccc2)n1`, which Potency is on record?
Answer: inactive

Question: Which Potency does the source give for `O=C1C(Cl)=C(NCC2CCCO2)C(=O)N1CCc1ccccc1` (stereo unspecified) here?
Answer: inconclusive: 16.4 µM [activator, partial curve]

Question: Which Potency does the source give for `Cc1ccc(CN2CCC(CNS(=O)(=O)c3ccc(-c4ccc(=O)[nH]n4)s3)CC2)cc1` here?
Answer: inconclusive: 23.1 µM [activator, partial curve, poor fit]

Question: For `Cc1cccc(N2CCN(C(=O)C3CCN(c4ncnc5c4nc4n5CCCCC4)CC3)CC2)c1C`, which Potency is on record?
Answer: inconclusive: 4.61 µM [inhibitor, partial curve, poor fit]
